Two molecules from publication PMC9513094 can be followed below.

These are yes or no findings as the source states them, for the method shown. Binding seen in cells or lysates may run through a third protein. Binding calls can cover weak binding; strength is not graded here. For some assays here: Sequences can lack the tags named with a protein.

One assay deals with GFP-TRB1 (Arabidopsis). Description: co-IP; GFP-Trap_A beads on plant lysate; 10 mM Tris-HCl pH 7.5, 150 mM NaCl, 0.5 mM EDTA, 0.5% Triton-X100; blots with anti-RFP and anti-GFP.
The target of the next assay is nYFP-TRB1 (Arabidopsis). Description: split reporter; split-YFP BiFC, nYFP and cYFP fusions co-expressed in N. benthamiana, imaged two days after infiltration.

B1: VAP27-1-RFP (protein, UniProt Q8VZ95 1-256)
chain: MSNIDLIGMSNRDLIGMSNSELLTVEPLDLQFPFELKKQISCSLYLTNKTDNNVAFKVKTTNPKKYCVRPNTGVVLPRSTCEVLVTMQAQKEAPSDMQCKDKFLLQGVIASPGVTAKEVTPEMFSKEAGHRVEETKLRVTYVAPPRPPSPVHEGSEEGSSPRASVSDNGHGSEFSFERFIVDNKAGHQENTSEARALITKLTEEKQSAIQLNNRLQRELDQLRRESKKSQSGGIPFMYVLLVGLIGLILGYIMKRT
Turning to B1, the binding entry with GFP-TRB1 (Arabidopsis) is listed as “binds”.

B2: cYFP-VAP27-1 (protein, UniProt Q8VZ95 1-256)
chain: MSNIDLIGMSNRDLIGMSNSELLTVEPLDLQFPFELKKQISCSLYLTNKTDNNVAFKVKTTNPKKYCVRPNTGVVLPRSTCEVLVTMQAQKEAPSDMQCKDKFLLQGVIASPGVTAKEVTPEMFSKEAGHRVEETKLRVTYVAPPRPPSPVHEGSEEGSSPRASVSDNGHGSEFSFERFIVDNKAGHQENTSEARALITKLTEEKQSAIQLNNRLQRELDQLRRESKKSQSGGIPFMYVLLVGLIGLILGYIMKRT
For B2, the binding entry in the assay with nYFP-TRB1 (Arabidopsis) is reported as “binds”.
